Source: PubChem BioAssay AID1224830 (NIAID, 2016)

Screen: 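Genes whose knock-down alters the TNF-alpha reporter response to LPS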 (primary screen)
Cells: human THP-1 monocytic leukaemia cells, TNF dual-luciferase reporter clone, PMA-differentiated to macrophage-like cells
Reagent: siRNA pool against human genes, 50 nM
Time to read-out: LPS for 4 h, given about 3 days after siRNA transfection
Conditions: bacterial LPS (TLR4 ligand), 10 ng/ml
Detection: 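Ratio of firefly to renilla light, scaled to the plate median and expressed as a robust z-score per replicate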
Direction: TNF reporter robust z-score: higher = stronger TNF reporter response to LPS
Call rule: 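a well is active when its z-score exceeds 2.8 or falls below -1.5; control wells carry no call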
In all, the deposit lists about 18,000 reagents; below is a part drawn at random. About 2,900 of them (16%) were called active. 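Calls are made per well; low scores hint the gene aids the LPS response, high scores that it dampens it.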 Repeated entries: four replicate wells of each siRNA pool.

{"gene knocked down": "ARL11", "TNF reporter robust z-score": -0.74, "Call": "inactive"}
{"gene knocked down": "ARL11", "TNF reporter robust z-score": -0.97, "Call": "inactive"}
{"gene knocked down": "ARL11", "TNF reporter robust z-score": -0.84, "Call": "inactive"}
{"gene knocked down": "ARL11", "TNF reporter robust z-score": -0.82, "Call": "inactive"}
{"gene knocked down": "FAM32A", "TNF reporter robust z-score": -0.99, "Call": "inactive"}
{"gene knocked down": "FAM32A", "TNF reporter robust z-score": -1.23, "Call": "inactive"}
{"gene knocked down": "FAM32A", "TNF reporter robust z-score": -1.21, "Call": "inactive"}
{"gene knocked down": "FAM32A", "TNF reporter robust z-score": -0.17, "Call": "inactive"}
{"gene knocked down": "PAX1", "TNF reporter robust z-score": -0.21, "Call": "inactive"}
{"gene knocked down": "PAX1", "TNF reporter robust z-score": -0.7, "Call": "inactive"}
{"gene knocked down": "PAX1", "TNF reporter robust z-score": -0.27, "Call": "inactive"}
{"gene knocked down": "PAX1", "TNF reporter robust z-score": -0.91, "Call": "inactive"}
{"gene knocked down": "SRRD", "TNF reporter robust z-score": -0.09, "Call": "inactive"}
{"gene knocked down": "SRRD", "TNF reporter robust z-score": 0.67, "Call": "inactive"}
{"gene knocked down": "SRRD", "TNF reporter robust z-score": -0.15, "Call": "inactive"}
{"gene knocked down": "SRRD", "TNF reporter robust z-score": 1.22, "Call": "inactive"}
{"gene knocked down": "TAF11", "TNF reporter robust z-score": -1.12, "Call": "inactive"}
{"gene knocked down": "TAF11", "TNF reporter robust z-score": -1.71, "Call": "active"}
{"gene knocked down": "TAF11", "TNF reporter robust z-score": -1.09, "Call": "inactive"}
{"gene knocked down": "TAF11", "TNF reporter robust z-score": -0.26, "Call": "inactive"}
{"gene knocked down": "RPA2", "TNF reporter robust z-score": -0.59, "Call": "inactive"}
{"gene knocked down": "RPA2", "TNF reporter robust z-score": -0.8, "Call": "inactive"}
{"gene knocked down": "RPA2", "TNF reporter robust z-score": -0.71, "Call": "inactive"}
{"gene knocked down": "RPA2", "TNF reporter robust z-score": 0.13, "Call": "inactive"}
{"gene knocked down": "ENOSF1", "TNF reporter robust z-score": 0.97, "Call": "inactive"}
{"gene knocked down": "ENOSF1", "TNF reporter robust z-score": 0.06, "Call": "inactive"}
{"gene knocked down": "ENOSF1", "TNF reporter robust z-score": 0.11, "Call": "inactive"}
{"gene knocked down": "ENOSF1", "TNF reporter robust z-score": -0.42, "Call": "inactive"}
{"gene knocked down": "LONRF3", "TNF reporter robust z-score": 7.01, "Call": "active"}
{"gene knocked down": "LONRF3", "TNF reporter robust z-score": 0.65, "Call": "inactive"}
{"gene knocked down": "LONRF3", "TNF reporter robust z-score": 0.29, "Call": "inactive"}
{"gene knocked down": "LONRF3", "TNF reporter robust z-score": -1.27, "Call": "inactive"}
{"gene knocked down": "MYO9A", "TNF reporter robust z-score": 1.32, "Call": "inactive"}
{"gene knocked down": "MYO9A", "TNF reporter robust z-score": 0.71, "Call": "inactive"}
{"gene knocked down": "MYO9A", "TNF reporter robust z-score": 0.83, "Call": "inactive"}
{"gene knocked down": "MYO9A", "TNF reporter robust z-score": 1.23, "Call": "inactive"}
{"gene knocked down": "PRIM1", "TNF reporter robust z-score": 1.65, "Call": "inactive"}
{"gene knocked down": "PRIM1", "TNF reporter robust z-score": 1.11, "Call": "inactive"}
{"gene knocked down": "PRIM1", "TNF reporter robust z-score": 0.38, "Call": "inactive"}
{"gene knocked down": "PRIM1", "TNF reporter robust z-score": 2.46, "Call": "inactive"}
{"gene knocked down": "USP46", "TNF reporter robust z-score": -0.29, "Call": "inactive"}
{"gene knocked down": "USP46", "TNF reporter robust z-score": -1.43, "Call": "inactive"}
{"gene knocked down": "USP46", "TNF reporter robust z-score": -0.5, "Call": "inactive"}
{"gene knocked down": "USP46", "TNF reporter robust z-score": 0.8, "Call": "inactive"}
{"gene knocked down": "USP51", "TNF reporter robust z-score": 1.16, "Call": "inactive"}
{"gene knocked down": "USP51", "TNF reporter robust z-score": 1.26, "Call": "inactive"}
{"gene knocked down": "USP51", "TNF reporter robust z-score": 1.48, "Call": "inactive"}
{"gene knocked down": "USP51", "TNF reporter robust z-score": 1.73, "Call": "inactive"}
